Laboratory results reported in US20220289816A1, “IMMUNOTHERAPY WITH B*07 RESTRICTED PEPTIDES AND COMBINATION OF PEPTIDES AGAINST CANCERS AND RELATED METHODS” (Immatics Biotechnologies GmbH, priority 2018, published 2022).

Tested on: tumor tissue samples and normal tissue samples (HLA-B*07 positive)
Assay: Identification and quantitation of tumor associated peptides presented on the cell surface (HLA immunoprecipitation, label-free LC-MS)
Parameters: species or system human
Conditions: Table 8a; cancer entities on which the peptide was found presented (abbreviations in table head)

Question: How did the “Peptide Presentation on cancer entities” value turn out when “247 (SPVGVGQRL; listed as Homo sapiens) [compound 247]” was run?
Answer: The value was “SCLC”.

Question: Which “Peptide Presentation on cancer entities” value does the source give for “250 (APAAPAAVPS; listed as Homo sapiens) [compound 250]” here?
Answer: Its value is “CRC, GBM, OC”.

Question: With “251 (MPVDSFNSM; listed as Homo sapiens) [compound 251]” as the substance, how does the “Peptide Presentation on cancer entities” value read?
Answer: Its value is “MEL, NSCLCadeno, NSCLCsquam, RCC, SCLC, UBC”.

Question: Which “Peptide Presentation on cancer entities” value does the source give for “252 (QPENSLEGISL; listed as Homo sapiens) [compound 252]” here?
Answer: The value was “NSCLCsquam”.

Question: For “253 (MPVDSFNSML; listed as Homo sapiens) [compound 253]”, which “Peptide Presentation on cancer entities” value is on record?
Answer: Its value is “CRC, MEL, NSCLCsquam, SCLC, UBC”.

Question: How did the “Peptide Presentation on cancer entities” value turn out when “255 (VPSHWMVAL; listed as Homo sapiens) [compound 255]” was run?
Answer: Its value is “NHL”.

Question: With “256 (SPVPSHWMVAL; listed as Homo sapiens) [compound 256]” as the substance, how does the “Peptide Presentation on cancer entities” value read?
Answer: The value was “CLL, NHL”.

Question: “257 (APYGTLRKS; listed as Homo sapiens) [compound 257]” was tested. Which “Peptide Presentation on cancer entities” value did it give?
Answer: The value was “MEL”.

Question: Which “Peptide Presentation on cancer entities” value does the source give for “259 (VPMPGVQAV; listed as Homo sapiens) [compound 259]” here?
Answer: Its value is “UEC”.

Question: Which “Peptide Presentation on cancer entities” value does the source give for “260 (LVQSSRSEV; listed as Homo sapiens) [compound 260]” here?
Answer: The value was “HNSCC, OSCAR”.

Question: For “263 (SQRPPATSQA; listed as Homo sapiens) [compound 263]”, which “Peptide Presentation on cancer entities” value is on record?
Answer: The value was “AML, BRCA, CCC, CLL, CRC, GBM, HCC, HNSCC, NHL, OC, OSCAR, PACA, PRCA, RCC”.

Question: How did the “Peptide Presentation on cancer entities” value turn out when “264 (APRPGNWIL; listed as Homo sapiens) [compound 264]” was run?
Answer: The value was “MEL, NSCLCsquam”.

Question: Which “Peptide Presentation on cancer entities” value does the source give for “267 (MPVPGILL; listed as Homo sapiens) [compound 267]” here?
Answer: The value was “MEL”.

Question: “268 (EPLSVTASY; listed as Homo sapiens) [compound 268]” was tested. Which “Peptide Presentation on cancer entities” value did it give?
Answer: The value was “HNSCC”.

Question: For “269 (FTVSSSSAM; listed as Homo sapiens) [compound 269]”, which “Peptide Presentation on cancer entities” value is on record?
Answer: Its value is “GBC”.

Question: “270 (SPRGTTSTL; listed as Homo sapiens) [compound 270]” was tested. Which “Peptide Presentation on cancer entities” value did it give?
Answer: The value was “CCC, CRC, GBC, HCC, NHL”.

Question: How did the “Peptide Presentation on cancer entities” value turn out when “271 (SPTPVFTTL; listed as Homo sapiens) [compound 271]” was run?
Answer: The value was “CRC, GBC”.

Question: Which “Peptide Presentation on cancer entities” value does the source give for “272 (SSPRGTTSTL; listed as Homo sapiens) [compound 272]” here?
Answer: The value was “GBC, OSCAR”.

Question: How did the “Peptide Presentation on cancer entities” value turn out when “273 (TDTPSTTPTTI; listed as Homo sapiens) [compound 273]” was run?
Answer: The value was “CCC, CRC, GBC, GBM, HCC, MEL, NSCLCadeno, OSCAR, PACA, PRCA, RCC, SCLC, UEC”.

Question: “276 (RPVWDVRSA; listed as Homo sapiens) [compound 276]” was tested. Which “Peptide Presentation on cancer entities” value did it give?
Answer: The value was “HNSCC”.

Question: For “278 (LIAARGSLVL; listed as Homo sapiens) [compound 278]”, which “Peptide Presentation on cancer entities” value is on record?
Answer: Its value is “AML, CRC, MEL, NSCLCadeno, OSCAR, SCLC, UEC”.

Question: Which “Peptide Presentation on cancer entities” value does the source give for “279 (APADEPRTVL; listed as Homo sapiens) [compound 279]” here?
Answer: The value was “NSCLCsquam”.

Question: “280 (LPRAFLQSL; listed as Homo sapiens) [compound 280]” was tested. Which “Peptide Presentation on cancer entities” value did it give?
Answer: The value was “CRC, NHL, NSCLCsquam”.

Question: How did the “Peptide Presentation on cancer entities” value turn out when “284 (RPSAPRGPP; listed as Homo sapiens) [compound 284]” was run?
Answer: The value was “CRC, OSCAR”.

Question: Which “Peptide Presentation on cancer entities” value does the source give for “285 (RITWKGLLL; listed as Homo sapiens) [compound 285]” here?
Answer: Its value is “NSCLCother”.

Question: How did the “Peptide Presentation on cancer entities” value turn out when “286 (APARPAAAF; listed as Homo sapiens) [compound 286]” was run?
Answer: The value was “BRCA, MEL, NSCLCadeno, OC, RCC”.

Question: “287 (SPIPRPLFL; listed as Homo sapiens) [compound 287]” was tested. Which “Peptide Presentation on cancer entities” value did it give?
Answer: The value was “BRCA”.

Question: How did the “Peptide Presentation on cancer entities” value turn out when “288 (LHAMNSLSAM; listed as Homo sapiens) [compound 288]” was run?
Answer: The value was “NHL”.

Question: For “289 (LPYEKVSRL; listed as Homo sapiens) [compound 289]”, which “Peptide Presentation on cancer entities” value is on record?
Answer: Its value is “CCC, NHL”.

Question: How did the “Peptide Presentation on cancer entities” value turn out when “291 (SPSKSLEM; listed as Homo sapiens) [compound 291]” was run?
Answer: The value was “CRC”.

Question: How did the “Peptide Presentation on cancer entities” value turn out when “292 (LPMTHRLQL; listed as Homo sapiens) [compound 292]” was run?
Answer: Its value is “MEL”.

Question: Which “Peptide Presentation on cancer entities” value does the source give for “293 (FPYDKPLIM; listed as Homo sapiens) [compound 293]” here?
Answer: Its value is “GC, NSCLCadeno”.

Question: Which “Peptide Presentation on cancer entities” value does the source give for “296 (SPLLMQRTL; listed as Homo sapiens) [compound 296]” here?
Answer: Its value is “CLL, NHL”.

Question: For “298 (RVLLRWISL; listed as Homo sapiens) [compound 298]”, which “Peptide Presentation on cancer entities” value is on record?
Answer: Its value is “GBM”.

Question: With “299 (SPFSGGPVSF; listed as Homo sapiens) [compound 299]” as the substance, how does the “Peptide Presentation on cancer entities” value read?
Answer: Its value is “RCC”.

Question: Which “Peptide Presentation on cancer entities” value does the source give for “300 (HPYSDLADVF; listed as Homo sapiens) [compound 300]” here?
Answer: The value was “MEL”.

Question: “301 (FPAFLEAM; listed as Homo sapiens) [compound 301]” was tested. Which “Peptide Presentation on cancer entities” value did it give?
Answer: The value was “MEL”.

Question: How did the “Peptide Presentation on cancer entities” value turn out when “302 (IPIDQILNSF; listed as Homo sapiens) [compound 302]” was run?
Answer: The value was “MEL”.

Question: For “303 (RPPPPCIAL; listed as Homo sapiens) [compound 303]”, which “Peptide Presentation on cancer entities” value is on record?
Answer: Its value is “MEL”.

Question: “304 (SPLIGDFPAF; listed as Homo sapiens) [compound 304]” was tested. Which “Peptide Presentation on cancer entities” value did it give?
Answer: Its value is “MEL”.

Question: Which “Peptide Presentation on cancer entities” value does the source give for “305 (AASPVGSAL; listed as Homo sapiens) [compound 305]” here?
Answer: Its value is “HCC”.

Question: Which “Peptide Presentation on cancer entities” value does the source give for “307 (RPHQKGWLSI; listed as Homo sapiens) [compound 307]” here?
Answer: The value was “HCC”.

Question: For “308 (RPDVVRTLL; listed as Homo sapiens) [compound 308]”, which “Peptide Presentation on cancer entities” value is on record?
Answer: The value was “CRC, GBC, GC, HNSCC, MEL, NSCLCadeno, NSCLCsquam, OSCAR, PACA, RCC, UBC”.

Question: How did the “Peptide Presentation on cancer entities” value turn out when “311 (APRLALDPDAL; listed as Homo sapiens) [compound 311]” was run?
Answer: The value was “BRCA, SCLC”.

Question: Which “Peptide Presentation on cancer entities” value does the source give for “312 (SPSLQSSRESL; listed as Homo sapiens) [compound 312]” here?
Answer: Its value is “UBC”.

Question: How did the “Peptide Presentation on cancer entities” value turn out when “313 (VPLSSYVSI; listed as Homo sapiens) [compound 313]” was run?
Answer: The value was “MEL”.

Question: How did the “Peptide Presentation on cancer entities” value turn out when “314 (IALMKLAGPL; listed as Homo sapiens) [compound 314]” was run?
Answer: Its value is “AML, CRC, HCC, MEL, NHL, NSCLCadeno, UEC”.

Question: With “316 (NPREPEKSL; listed as Homo sapiens) [compound 316]” as the substance, how does the “Peptide Presentation on cancer entities” value read?
Answer: The value was “BRCA, CRC, GBC, GC, HCC, OSCAR, SCLC”.

Question: “317 (MPYNSAHHCVV; listed as Homo sapiens) [compound 317]” was tested. Which “Peptide Presentation on cancer entities” value did it give?
Answer: Its value is “CLL, NHL”.

Question: “319 (RPLDTFRVL; listed as Homo sapiens) [compound 319]” was tested. Which “Peptide Presentation on cancer entities” value did it give?
Answer: Its value is “OSCAR”.

Question: How did the “Peptide Presentation on cancer entities” value turn out when “320 (APMHIDRNIL; listed as Homo sapiens) [compound 320]” was run?
Answer: Its value is “HCC”.

Question: Which “Peptide Presentation on cancer entities” value does the source give for “321 (QPQQPGFFL; listed as Homo sapiens) [compound 321]” here?
Answer: Its value is “CLL”.

Question: Which “Peptide Presentation on cancer entities” value does the source give for “322 (RAVPVGSGL; listed as Homo sapiens) [compound 322]” here?
Answer: Its value is “MEL, NSCLCadeno, NSCLCsquam”.

Question: “323 (TPHGITDIL; listed as Homo sapiens) [compound 323]” was tested. Which “Peptide Presentation on cancer entities” value did it give?
Answer: The value was “CRC, UEC”.

Question: “324 (LPAPLRISL; listed as Homo sapiens) [compound 324]” was tested. Which “Peptide Presentation on cancer entities” value did it give?
Answer: The value was “BRCA, GBM, MEL, NSCLCadeno, OC, UEC”.

Question: “325 (SPRSNPVRL; listed as Homo sapiens) [compound 325]” was tested. Which “Peptide Presentation on cancer entities” value did it give?
Answer: Its value is “NHL”.
